This note sets out measurements from patent US20080050460A1.

Amino acid sequences for entries named in this document (tags omitted). Residues count along the entry.
UniProt Q9UK10: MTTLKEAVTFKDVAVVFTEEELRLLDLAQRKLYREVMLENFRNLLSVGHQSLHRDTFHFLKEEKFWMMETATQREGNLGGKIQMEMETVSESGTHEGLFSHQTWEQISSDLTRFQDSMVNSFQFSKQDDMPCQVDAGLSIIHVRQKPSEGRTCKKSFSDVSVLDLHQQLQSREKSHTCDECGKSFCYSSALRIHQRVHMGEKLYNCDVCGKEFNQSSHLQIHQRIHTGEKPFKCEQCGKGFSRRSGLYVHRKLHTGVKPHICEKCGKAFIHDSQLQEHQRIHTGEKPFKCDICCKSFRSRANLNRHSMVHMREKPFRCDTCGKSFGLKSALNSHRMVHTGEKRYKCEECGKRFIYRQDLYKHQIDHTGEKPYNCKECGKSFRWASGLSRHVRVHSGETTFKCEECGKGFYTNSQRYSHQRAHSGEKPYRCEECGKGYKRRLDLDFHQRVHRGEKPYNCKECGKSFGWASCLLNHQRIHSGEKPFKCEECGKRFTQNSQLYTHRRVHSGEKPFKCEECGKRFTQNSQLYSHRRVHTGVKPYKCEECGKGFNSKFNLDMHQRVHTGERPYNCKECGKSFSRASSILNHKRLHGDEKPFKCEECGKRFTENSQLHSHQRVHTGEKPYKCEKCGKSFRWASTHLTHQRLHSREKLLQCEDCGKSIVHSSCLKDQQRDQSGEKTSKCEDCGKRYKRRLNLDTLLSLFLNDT
UniProt P06748: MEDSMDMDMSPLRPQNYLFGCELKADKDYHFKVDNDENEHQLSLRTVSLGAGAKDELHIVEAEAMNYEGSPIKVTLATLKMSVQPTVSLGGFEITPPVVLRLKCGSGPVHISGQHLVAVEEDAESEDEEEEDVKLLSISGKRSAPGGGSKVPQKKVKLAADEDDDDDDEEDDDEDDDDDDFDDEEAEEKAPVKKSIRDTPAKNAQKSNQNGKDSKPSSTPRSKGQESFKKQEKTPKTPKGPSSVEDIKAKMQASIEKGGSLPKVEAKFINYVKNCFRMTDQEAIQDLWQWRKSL
UniProt P14625, residues 22-803: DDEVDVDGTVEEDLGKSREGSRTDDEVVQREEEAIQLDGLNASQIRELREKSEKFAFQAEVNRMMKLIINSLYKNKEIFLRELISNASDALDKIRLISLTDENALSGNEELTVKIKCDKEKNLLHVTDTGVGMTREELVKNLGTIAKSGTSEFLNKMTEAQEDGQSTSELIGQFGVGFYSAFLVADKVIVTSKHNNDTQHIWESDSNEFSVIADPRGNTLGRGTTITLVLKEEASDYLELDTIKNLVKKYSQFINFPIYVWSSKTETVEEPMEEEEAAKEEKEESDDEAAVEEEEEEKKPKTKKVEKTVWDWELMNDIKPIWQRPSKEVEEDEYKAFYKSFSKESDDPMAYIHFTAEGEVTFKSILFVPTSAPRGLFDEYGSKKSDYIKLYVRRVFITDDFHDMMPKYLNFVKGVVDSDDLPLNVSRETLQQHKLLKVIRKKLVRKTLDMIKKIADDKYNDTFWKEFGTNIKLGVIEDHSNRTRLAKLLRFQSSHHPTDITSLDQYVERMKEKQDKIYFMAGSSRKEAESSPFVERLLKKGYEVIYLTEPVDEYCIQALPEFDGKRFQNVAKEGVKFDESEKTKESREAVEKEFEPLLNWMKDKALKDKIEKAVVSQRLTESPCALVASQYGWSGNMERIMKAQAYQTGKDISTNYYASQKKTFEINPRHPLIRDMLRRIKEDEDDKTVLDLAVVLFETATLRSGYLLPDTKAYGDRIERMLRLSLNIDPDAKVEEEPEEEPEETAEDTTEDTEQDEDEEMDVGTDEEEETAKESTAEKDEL

These are yes or no findings as the source states them, for the method shown. Some binding calls cover weakened binding; strength is not graded here.

For one assay, the target named is ZNF225 (UniProt Q9UK10). Kind of assay: identification of polypeptides chaperoned by or associated with gp96, method not detailed.
The next assay concerns the target B23 nucleophosmin (UniProt P06748). The assay is described as follows: identification of polypeptides associated with the gp96 complex, method not detailed.

Consider “tumour rejection antigen gp96 (from UniProt P14625 22-803)”, for which the binding result in the assay with ZNF225 and with B23 nucleophosmin was “binds” each time.
